Source: PubChem BioAssay AID1671195 (Yale University, 2021)

- Aim: 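Genes whose knockdown alters LDL uptake in liver cancer cells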 (primary screen)
- Cells: human Huh7 hepatoma cells
- Reagents: siRNA pool against human genes, 18 nM
- Time to read-out: about 2 to 2.5 days of knockdown, then 8 h LDL uptake
- Treatment: DiI-labelled LDL at 30 µg/ml for 8 h, in lipoprotein-deficient serum medium
- Measured: 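Fluorescent LDL signal imaged in cells, scaled to the plate median, robust z-score for each replicate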
- Direction: robust z-score: higher = more LDL uptake after knockdown
- Hit rule: 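Active when two or more replicates show a robust z-score above 2 or below -2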
In all, the deposit lists about 22,000 reagents; this is a random part of them. Over the whole deposit, about 1,510 (6.9%) were called active. 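Active includes knockdowns raising or lowering LDL uptake; positive z-scores mean more uptake, negative mean less.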

The opening 8 entries as a preview:
gene knocked down | robust z-score, replicate 1 | robust z-score, replicate 2 | robust z-score, replicate 3 | outcome
LILRB3 | 1 | 0.798 | 0.286 | inactive
PLEKHG5 | -1.66 | -1.77 | -1.7 | inactive
HDAC8 | 1.58 | 1.21 | 0.294 | inactive
DOCK2 | -1.37 | -1.44 | -1.17 | inactive
MRFAP1L1 | -0.331 | -0.218 | -0.325 | inactive
NPHP3 | -1.19 | -0.809 | 0.305 | inactive
S1PR4 | -0.996 | -0.214 | -1.4 | inactive
CUEDC1 | 0.803 | 0.827 | 0.624 | inactive

Results, from the first entry:
gene knocked down | robust z-score, replicate 1 | robust z-score, replicate 2 | robust z-score, replicate 3 | outcome
LILRB3 | 1 | 0.798 | 0.286 | inactive
PLEKHG5 | -1.66 | -1.77 | -1.7 | inactive
HDAC8 | 1.58 | 1.21 | 0.294 | inactive
DOCK2 | -1.37 | -1.44 | -1.17 | inactive
MRFAP1L1 | -0.331 | -0.218 | -0.325 | inactive
NPHP3 | -1.19 | -0.809 | 0.305 | inactive
S1PR4 | -0.996 | -0.214 | -1.4 | inactive
CUEDC1 | 0.803 | 0.827 | 0.624 | inactive
SULT1B1 | 0.738 | 0.799 | 1.53 | inactive
ATP1A2 | 0.425 | -0.426 | -0.14 | inactive
AMY2A | -1.53 | -1.3 | -1.21 | inactive
KIR2DL4 | -1.23 | -1.28 | -1.04 | inactive
KLHDC10 | 0.351 | -0.922 | -0.339 | inactive
LOC390680 (retired record) | 0.173 | -0.512 | -0.415 | inactive
ISLR | -0.104 | -0.822 | -0.529 | inactive
CRCP | 0.628 | 0.794 | -0.0035 | inactive
CAD | 0.945 | 0.469 | -0.0843 | inactive
TSPAN17 | -0.47 | -0.89 | -0.0319 | inactive
NINJ1 | -0.451 | 0.464 | 0.41 | inactive
CHID1 | -0.37 | -0.492 | -0.623 | inactive
SETMAR | -0.716 | 0.702 | 0.71 | inactive
DDC | -1.62 | -0.947 | -1.62 | inactive
PLTP | -0.102 | 0.828 | 1.2 | inactive
ANKK1 | 0.494 | 0.405 | 0.175 | inactive
NSMCE1-DT | 3.75 | 4.45 | 4 | active
MRGBP | -1.7 | -1.08 | -1.91 | inactive
LOC401307 (retired record) | -0.664 | -2.16 | 0.0399 | inactive
LOC400813 (retired record) | 1.45 | 0.645 | 0.927 | inactive
DUSP4 | -0.408 | -0.619 | 0.296 | inactive
LFNG | -0.684 | -0.795 | 0.00234 | inactive
WNT2B | 0.211 | -0.223 | -0.881 | inactive
DGKA | -0.651 | -0.648 | -0.93 | inactive
RERGL | 1.25 | 1.7 | 1.16 | inactive
SMC6 | 0.981 | 0.199 | 0.673 | inactive
LY6G5C | -0.774 | -0.627 | -0.292 | inactive
ATN1 | 0.0174 | -1.65 | -0.671 | inactive
DOC2GP | -0.714 | -0.548 | -1.05 | inactive
CRMA | -0.271 | 0.186 | 0.275 | inactive
TMPRSS11B | 1.99 | 1.4 | 1.7 | inactive
SLC2A3 | -0.0679 | -0.5 | 0.26 | inactive
SLC25A41 | -2 | -2.14 | -2.03 | active
CENPP | 0.828 | -1.38 | 0.575 | inactive
DBP | -0.13 | -1.11 | -0.506 | inactive
HOXA10 | -0.737 | -0.98 | -1.12 | inactive
SYNJ2 | 1.51 | 0.882 | 0.861 | inactive
LOC441139 (retired record) | 1.01 | 1.16 | 1.02 | inactive
KRT6C | 0.579 | 0.644 | 0.793 | inactive
RIMS1 | 0.652 | 0.3 | 1.42 | inactive
REC8 | -1.25 | -1.92 | 0.218 | inactive
TLE1 | -0.16 | -0.842 | -0.791 | inactive
BASP1 | -1.52 | 0.523 | 0.257 | inactive
PHOX2A | 0.211 | -0.463 | 0.89 | inactive
TEAD4 | 0.724 | 1.3 | 0.984 | inactive
LOC440729 (retired record) | -0.393 | -0.641 | -0.849 | inactive
CBFB | -1.22 | -1.17 | -0.891 | inactive
DIAPH3 | -1.25 | -1.1 | -1.38 | inactive
LOC441868 (retired record) | -0.798 | -0.651 | -0.804 | inactive
GRIN1 | 0.461 | 0.995 | 1.01 | inactive
ZNF681 | -2.05 | -1.71 | -0.697 | inactive
SLC25A30 | -0.407 | -0.985 | -0.867 | inactive
TEFM | 2.88 | 1.77 | 1.39 | inactive
DHX32 | -1.01 | -1.29 | -0.343 | inactive
RPN2 | -0.573 | 0.125 | -0.6 | inactive
CCDC9 | -1.4 | -0.367 | 0.214 | inactive
OVCH2 | -0.522 | 0.376 | -0.0276 | inactive
KLHL24 | -1.04 | -1.2 | 0.821 | inactive
CYP2S1 | -0.508 | -0.205 | -0.238 | inactive
UBXN10 | -0.47 | -0.504 | -0.358 | inactive
